From patent US10159726B2, “Peptides, combination of peptides and scaffolds for use in immunotherapeutic treatment of various cancers” (Immatics Biotechnologies GmbH, priority 2015, dated 2018) come the findings set out here.

What all share (parameters): species or system human
Data set [1] has as its system HLA-A*24 molecules of primary tumors. In words: Identification and relative LC-MS quantitation of HLA-A*24 tumor-associated peptides presented on tissue samples (XPRESIDENT presentation profiles). Particulars: Table 9A: selected HLA-A*24-binding tumor-associated peptides; cancer entities on which the peptide was found presented.
Data set [2] has as its system source genes of selected peptides. The data set is described as follows: Expression profiling of source genes by in-house RNAseq, tumor vs normal tissues (target coverage). Particulars: for Target coverage, over-expression of source gene, AML: AML (N = 7); for Target coverage, over-expression of source gene, AML / Target coverage, over-expression of source gene, BRCA / Target coverage, over-expression of source gene, CLL / Target coverage, over-expression of source gene, CRC / Target coverage, over-expression of source gene, GB / Target coverage, over-expression of source gene, HCC / Target coverage, over-expression of source gene, OC / Target coverage, over-expression of source gene, OSCAR / Target coverage, over-expression of source gene, PC / Target coverage, over-expression of source gene, RCC / Target coverage, over-expression of source gene, SCLC / Target coverage, over-expression of source gene, pNSCLC: in-house RNASeq; for Target coverage, over-expression of source gene, BRCA: BRCA (N = 10); for Target coverage, over-expression of source gene, CLL: CLL (N = 10); for Target coverage, over-expression of source gene, CRC: CRC (N = 20); for Target coverage, over-expression of source gene, GB: GB (N = 24); for Target coverage, over-expression of source gene, HCC: HCC (N = 15); for Target coverage, over-expression of source gene, OC: OC (N = 12); for Target coverage, over-expression of source gene, OSCAR: OSCAR (N = 11); for Target coverage, over-expression of source gene, PC: PC (N = 26); for Target coverage, over-expression of source gene, RCC: RCC (N = 10); for Target coverage, over-expression of source gene, SCLC: SCLC (N = 10); for Target coverage for source genes of selected peptides, GC (N = 11): gastric cancer; for Target coverage for source genes of selected peptides, HNSCC (N = 10): head and neck small cell carcinoma; for Target coverage for source genes of selected peptides, MEL (N = 10): melanoma; for Target coverage for source genes of selected peptides, NHL (N = 10): non-Hodgkin lymphoma; for Target coverage, over-expression of source gene, pNSCLC: pNSCLC (N = 11); for Target coverage for source genes of selected peptides, PCA (n = 10): prostate cancer and benign prostate hyperplasia; for Target coverage for source genes of selected peptides, UBC (N = 10): urinary bladder cancer; for Target coverage for source genes of selected peptides, UTC (N = 10): uterine cancer.

For data set [3] the test system is unchanged. In words: Target coverage of source genes in tumor entities based on TCGA Research Network data. Particulars: over-expressed = more than 2-fold above the highest 75% percentile of normal organs; for Target coverage, over-expression category of source gene, BLCA (N = 408): Bladder urothelial carcinoma; for Target coverage, over-expression category of source gene, CESC (N = 307): Cervical squamous cell carcinoma and endocervical adenocarcinoma; for Target coverage, over-expression category of source gene, HNSC (N = 521): Head and neck squamous cell carcinoma; for Target coverage, over-expression category of source gene, DLBC (N = 48): Lymphoid neoplasm diffuse large B-cell lymphoma.

Setting [4] is: over-expression = more than 1.5-fold vs highest normal tissue.
The mark [5] stands for this setting: share of tumors with more than 1.5-fold higher expression than the highest-expressing relevant normal tissue, in-house RNAseq.
[6] abbreviates: share of tumors with more than 1.5-fold higher expression than highest relevant normal tissue.

For part of these data: Expression grades refer to the transcript from which the peptide derives; gene names, where given, were looked up from the sequence.

Take “162: peptide found in IFNG (gene looked up) (KYTSYILAF; listed as Homo sapiens) [compound 162]”: in data set [1], the ENTITIES result is listed as “NSCLC, GC, PCA, HCC”. In addition, the “Target coverage, over-expression of source gene, AML” value in data set [2] (over-expression = more than 1.5-fold higher expression on tumor vs highest-expressing relevant normal tissue) is on record as “I (<19% over-expression = I)”. Also, in data set [2] (setting [4]), the “Target coverage, over-expression of source gene, BRCA” value was “I (<19% over-expression = I)”; the “Target coverage, over-expression of source gene, CLL” value is “I (<19% over-expression = I)”; the “Target coverage, over-expression of source gene, CRC” value is “I (<19% over-expression = I)”; the “Target coverage, over-expression of source gene, GB” value is on record as “I (<19% over-expression = I)”. In data set [2] (setting [4]), the “Target coverage, over-expression of source gene, HCC” value is on record as “I (<19% over-expression = I)”; the “Target coverage, over-expression of source gene, OC” value is on record as “II (20-49% = II)”; the “Target coverage, over-expression of source gene, OSCAR” value is given as “I (<19% over-expression = I)”; the “Target coverage, over-expression of source gene, PC” value is listed as “I (<19% over-expression = I)”. For the same substance, in data set [2] (setting [4]), the “Target coverage, over-expression of source gene, RCC” value is recorded as “II (20-49% = II)”; the “Target coverage, over-expression of source gene, SCLC” value is reported as “I (<19% over-expression = I)”; the “Target coverage, over-expression of source gene, pNSCLC” value is “I (<19% over-expression = I)”. In data set [2] (setting [5]), the “Target coverage for source genes of selected peptides, GC (N = 11)” value was “I (<19% over-expression = I)”; the “Target coverage for source genes of selected peptides, HNSCC (N = 10)” value is given as “I (<19% over-expression = I)”; the “Target coverage for source genes of selected peptides, MEL (N = 10)” value is given as “I (<19% over-expression = I)”; the “Target coverage for source genes of selected peptides, NHL (N = 10)” value was “II (20-49% = II)”. Moreover, in data set [2] (setting [5]), the “Target coverage for source genes of selected peptides, PCA (n = 10)” value is “I (<19% over-expression = I)”; the “Target coverage for source genes of selected peptides, UBC (N = 10)” value is recorded as “I (<19% over-expression = I)”; the “Target coverage for source genes of selected peptides, UTC (N = 10)” value is “I (<19% over-expression = I)”. Besides, in data set [3], the “Target coverage, over-expression category of source gene, BLCA (N = 408)” value is “C (>=5% of tumors above the cutoff, but <20%)”; the “Target coverage, over-expression category of source gene, CESC (N = 307)” value is reported as “B (>=20% of tumors above the cutoff, but <50%)”; the “Target coverage, over-expression category of source gene, HNSC (N = 521)” value is “C (>=5% of tumors above the cutoff, but <20%)”; the “Target coverage, over-expression category of source gene, DLBC (N = 48)” value was “A (>=50% of tumors above the cutoff)”. The “Target coverage, over-expression category of source gene, MESO (N = 87)” value in data set [3] (Mesothelioma) is recorded as “C (>=5% of tumors above the cutoff, but <20%)”.

“314: peptide found in ITPR2 (gene looked up) (RYFKGDYSI; listed as Homo sapiens) [compound 314]”: the ENTITIES result in data set [1] is given as “GB, HCC”. For the same substance, in data set [2] (setting [6]), the “Target coverage, over-expression of source gene, AML” value was “I (<19% over-expression = I)”; the “Target coverage, over-expression of source gene, BRCA” value is recorded as “I (<19% over-expression = I)”; the “Target coverage, over-expression of source gene, CLL” value is “I (<19% over-expression = I)”; the “Target coverage, over-expression of source gene, CRC” value is given as “I (<19% over-expression = I)”. Also, in data set [2] (setting [6]), the “Target coverage, over-expression of source gene, GB” value is reported as “II (20-49% = II)”; the “Target coverage, over-expression of source gene, HCC” value is listed as “I (<19% over-expression = I)”; the “Target coverage, over-expression of source gene, OC” value is given as “I (<19% over-expression = I)”; the “Target coverage, over-expression of source gene, OSCAR” value was “I (<19% over-expression = I)”. Moreover, in data set [2] (setting [6]), the “Target coverage, over-expression of source gene, PC” value is given as “I (<19% over-expression = I)”; the “Target coverage, over-expression of source gene, RCC” value was “I (<19% over-expression = I)”; the “Target coverage, over-expression of source gene, SCLC” value is reported as “I (<19% over-expression = I)”; the “Target coverage, over-expression of source gene, pNSCLC” value is on record as “I (<19% over-expression = I)”. Further, the “Target coverage, over-expression category of source gene, KICH (N = 66)” value in data set [3] (Kidney chromophobe) is reported as “B (>=20% of tumors above the cutoff, but <50%)”.

On to “377: peptide found in RPTOR (gene looked up) (QYTPHSHQF; listed as Homo sapiens) [compound 377]”, for which, in data set [1], the ENTITIES entry was “HCC, NSCLC”. For the same substance, in data set [2] (setting [6]), the “Target coverage, over-expression of source gene, AML” value is recorded as “I (<19% over-expression = I)”; the “Target coverage, over-expression of source gene, BRCA” value is given as “I (<19% over-expression = I)”; the “Target coverage, over-expression of source gene, CLL” value was “I (<19% over-expression = I)”; the “Target coverage, over-expression of source gene, CRC” value is “I (<19% over-expression = I)”. Also, in data set [2] (setting [6]), the “Target coverage, over-expression of source gene, GB” value is given as “II (20-49% = II)”; the “Target coverage, over-expression of source gene, HCC” value was “I (<19% over-expression = I)”; the “Target coverage, over-expression of source gene, OC” value is “I (<19% over-expression = I)”; the “Target coverage, over-expression of source gene, OSCAR” value is listed as “I (<19% over-expression = I)”. In addition, in data set [2] (setting [6]), the “Target coverage, over-expression of source gene, PC” value is recorded as “I (<19% over-expression = I)”; the “Target coverage, over-expression of source gene, RCC” value is listed as “I (<19% over-expression = I)”; the “Target coverage, over-expression of source gene, SCLC” value was “III (50-69% = III)”; the “Target coverage, over-expression of source gene, pNSCLC” value was “II (20-49% = II)”. In data set [3] (Adrenocortical carcinoma), the “Target coverage, over-expression category of source gene, ACC (N = 79)” value is recorded as “C (>=5% of tumors above the cutoff, but <20%)”.

As to “360: peptide found in PSMA7 (gene looked up) (VFSPDGHLF; listed as Homo sapiens) [compound 360]”, the ENTITIES result in data set [1] was “GB, PCA, HCC, NSCLC”. In data set [2] (setting [6]), the “Target coverage, over-expression of source gene, AML” value is “I (<19% over-expression = I)”; the “Target coverage, over-expression of source gene, BRCA” value was “II (20-49% = II)”; the “Target coverage, over-expression of source gene, CLL” value is recorded as “I (<19% over-expression = I)”; the “Target coverage, over-expression of source gene, CRC” value is given as “I (<19% over-expression = I)”. In addition, in data set [2] (setting [6]), the “Target coverage, over-expression of source gene, GB” value is reported as “I (<19% over-expression = I)”; the “Target coverage, over-expression of source gene, HCC” value is reported as “I (<19% over-expression = I)”; the “Target coverage, over-expression of source gene, OC” value is on record as “I (<19% over-expression = I)”; the “Target coverage, over-expression of source gene, OSCAR” value is given as “I (<19% over-expression = I)”. For the same substance, in data set [2] (setting [6]), the “Target coverage, over-expression of source gene, PC” value was “I (<19% over-expression = I)”; the “Target coverage, over-expression of source gene, RCC” value is recorded as “I (<19% over-expression = I)”; the “Target coverage, over-expression of source gene, SCLC” value was “I (<19% over-expression = I)”; the “Target coverage, over-expression of source gene, pNSCLC” value is reported as “I (<19% over-expression = I)”. Moreover, in data set [2] (gallbladder adenocarcinoma and cholangiocarcinoma, share of tumors with more than 1.5-fold higher expression than the highest-expressing relevant normal tissue, in-house RNAseq), the “Target coverage for source genes of selected peptides, GBC_CCC (N = 10)” value is recorded as “I (<19% over-expression = I)”. Also, in data set [2] (setting [5]), the “Target coverage for source genes of selected peptides, GC (N = 11)” value is “I (<19% over-expression = I)”; the “Target coverage for source genes of selected peptides, HNSCC (N = 10)” value is given as “I (<19% over-expression = I)”; the “Target coverage for source genes of selected peptides, MEL (N = 10)” value was “I (<19% over-expression = I)”; the “Target coverage for source genes of selected peptides, NHL (N = 10)” value was “II (20-49% = II)”. Further, in data set [2] (setting [5]), the “Target coverage for source genes of selected peptides, PCA (n = 10)” value is on record as “I (<19% over-expression = I)”; the “Target coverage for source genes of selected peptides, UBC (N = 10)” value is “I (<19% over-expression = I)”; the “Target coverage for source genes of selected peptides, UTC (N = 10)” value is “I (<19% over-expression = I)”. For the same substance, in data set [3], the “Target coverage, over-expression category of source gene, BLCA (N = 408)” value is listed as “C (>=5% of tumors above the cutoff, but <20%)”; the “Target coverage, over-expression category of source gene, CESC (N = 307)” value is given as “C (>=5% of tumors above the cutoff, but <20%)”; the “Target coverage, over-expression category of source gene, HNSC (N = 521)” value was “C (>=5% of tumors above the cutoff, but <20%)”; the “Target coverage, over-expression category of source gene, DLBC (N = 48)” value is “B (>=20% of tumors above the cutoff, but <50%)”.
